Source: PubChem BioAssay AID1347076 (National Center for Advancing Translational Sciences (NCATS), 2019)
About 13,000 (3.2%) of roughly 400,000 compounds were called active. The inconclusive results got no clear call from the source; some entries with a clear call stand among them for comparison. Calls follow the shape of the dose curve; as a rule, active = well fitted cell-killing curve with a large enough effect; inconclusive = small, poorly fitted or top-dose-only effect, or effect the other way; inactive = flat fitted curve, though single readings scatter. Where the call is inconclusive, the potency comes from a doubtful curve fit.

assay: qHTS assay for MDR1-selective chemotherapeutics: Primary screen using the drug-selected MDR subline cells KB-V1; details: KB-V1 MDR cells viability, CellTiter-Glo, 72 h; activity change, negative = cytotoxicity: at 46.1 µM (top of the series); also: nearly all actives have a fitted effect of over 60% in size
In short: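 Following 72 h at 37 degrees C with compound, KB-V1 cell viability was read by CellTiter-Glo luminescence, medium being phenol-red-free DMEM plus 10% FBS; concentration-response parameters came from normalized, curve-fitted qHTS data.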
% is scaled to controls: 0 for no effect and ±100 for the full control effect; potency is read from the fitted curve at half-maximal effect.

SMILES | Potency | activity change, negative = cytotoxicity
Cc1cccc(NC(=O)c2cccc3c2C(=O)c2ccccc2-3)c1 | active: 6.51 µM | –
O=C(O)C1C2C=CC(C2)C1C(=O)NCc1ccc(Cl)cc1Cl (stereo not drawn) | inactive | –
CC(C)(C)NC(=O)CSc1ccc(S(=O)(=O)N2CCOCC2)cn1 | inconclusive: 25.9 µM [cytotoxic, partial curve, poor fit] | –
CC(C)C(=O)Nc1nnc(SCC(=O)NC2CCCC2)s1 | – | inconclusive: -10.4%
CCOC(=O)CNC(=S)N(Cc1ccco1)Cc1ccccc1Cl | inconclusive: 29.1 µM [rising, partial curve, poor fit] | –
COc1ccc(C2=C(N3CCN(c4cccc(C)c4)C(C)C3)c3ccccc3C2=O)cc1 (stereo not drawn) | inconclusive: 29.1 µM [cytotoxic, single point] | –
COc1ccc(N2CC(C(=O)Nc3ccc(S(=O)(=O)Nc4nccs4)cc3)CC2=O)c(OC)c1 (stereo not drawn) | inconclusive: 29.1 µM [rising, single point] | –
Cc1ccc(F)cc1NC(=O)Cn1c(C)cc(C)c(C#N)c1=O | inconclusive: 32.6 µM [cytotoxic, single point] | –
O=C(Nc1cccn(Cc2c(Cl)cccc2Cl)c1=O)c1c(Cl)cccc1Cl | active: 3.66 µM | –
O=C(c1ccc(Br)cc1)C(CN1CCOCC1)c1ccccc1 (stereo not drawn) | inconclusive: 29.1 µM [cytotoxic, single point] | –
Cc1ccc(S(=O)(=O)Oc2ccccc2/C=N/NC(N)=S)cc1 | inconclusive: 3.66 µM [cytotoxic, full curve] | –
O=C(CN1CCN(S(=O)(=O)c2ccc(F)c(Cl)c2)CC1)N1CCc2ccccc2C1 | active: 9.2 µM | –
O=C(Nc1cccc(C(F)(F)F)c1)C1Cc2c(-c3cccc(F)c3)ccnc2O1 (stereo not drawn) | inconclusive: 25.9 µM [cytotoxic, single point] | –
O=C(Nc1ccc(Cl)cc1)N1CCCN(c2ccc(C(F)(F)F)cc2[N+](=O)[O-])CC1 | inconclusive: 16.4 µM [cytotoxic, single point] | –
COCc1cc(C)nc(SCc2ccc(F)cc2)c1C#N | inactive | –
COc1ccc(/C=N\NC(=O)c2ccccc2OC)cc1COc1ccccc1C | inactive | –
Cc1ccc(SCC(=O)OC(C)C(=O)NCc2ccccc2)cc1C (stereo not drawn) | inconclusive: 29.1 µM [rising, single point] | –
Cc1[nH]c2ccccc2c1SCC(=O)N1CCCCC1 | inactive | –
Cc1ccc(S(=O)(=O)c2nnn3c2nc(NCCc2ccccc2)c2sccc23)cc1 | inconclusive: 20.6 µM [cytotoxic, single point] | –
N#CCCN(C(=O)COC(=O)c1ccc2c(c1)OCCO2)c1ccccc1 | inconclusive: 23.1 µM [rising, single point] | –
Cc1sc2ncnc(SCC(=O)NC(C)C(C)C)c2c1C (stereo not drawn) | inactive | –
CCc1ccc(OCCCCCn2ccnc2)cc1 | inconclusive: 25.9 µM [cytotoxic, single point] | –
N#Cc1cc(Nc2c(N)nc[nH]c2=O)c([N+](=O)[O-])cc1C#N | inactive | –
O=C(CN1C(=O)NC2(CCOc3ccccc32)C1=O)N1CCCCC1 (stereo not drawn) | inconclusive: 18.4 µM [cytotoxic, partial curve, poor fit] | –
CCOc1nc(C#N)nc(N2CCCCC2)n1 | inconclusive: 0.0092 µM [rising, full curve, poor fit] | –

SMILES | Potency | activity change, negative = cytotoxicity
Cc1ccc(S(=O)(=O)/N=C2\C=C(Nc3ccc(O)cc3)C(=O)c3ccccc32)cc1 | inconclusive: 16.4 µM [cytotoxic, partial curve, poor fit] | –
COc1cc2c(cc1OC)C(=O)N1[C@H]3c4ccccc4OC[C@@H]3[C@H](c3ccccc3)[C@]1(C)C(=O)N2 | inconclusive: 0.731 µM [cytotoxic, full curve] | –
Cc1cc(Br)cn2c(Cc3ccccc3)c(-c3ccc(F)cc3)nc12 | inactive | –
CCOC(=O)C1CCCN(C(=O)c2sc3nc4n(c(=O)c3c2C)CCC4)C1 (stereo not drawn) | inactive | –
CCn1c2ccccc2c2cc(NS(=O)(=O)c3ccccc3C)ccc21 | inconclusive: 29.1 µM [cytotoxic, single point] | –
CCC(C)NC(=O)C1CCN(CCCc2ccccc2)CC1 (stereo not drawn) | inconclusive: 0.231 µM [cytotoxic, full curve] | –
CC1=C(C(=O)N2CCOCC2)CC(CC(=O)NC2CCCCC2)C(=O)N1Cc1ccc(F)cc1 (stereo not drawn) | inactive | –
O=C1C2CCCN2C(c2ccc(Cl)cc2)N1c1nccs1 (stereo not drawn) | inactive | –
Cc1cc[n+](C2CCCCC2)cc1 | inconclusive: 29.1 µM [cytotoxic, single point] | –
Cn1c(=O)c2c(ncn2CC(=O)OCC(=O)Nc2ccccc2)n(C)c1=O | inconclusive: 18.4 µM [rising, partial curve] | –
Cc1ccccc1NC(=S)NNC(=O)c1ccoc1C | inconclusive: 16.4 µM [cytotoxic, partial curve] | –
Cc1cccn2c(=O)c(C(=O)NCCc3ccccc3)cnc12 | inactive | –
CCOc1ccc(CCNC(=O)c2cc(C)nc3c2c(C)nn3-c2cccc(F)c2)cc1 | inactive | –
CN1CCC(N(C)C(=O)/C(C#N)=C\c2ccc(OC(F)F)cc2)CC1 | inconclusive: 29.1 µM [rising, single point] | –
C[n+]1cc(C(=O)N2CCCCC2)ccc1/C=C/c1c[nH]c2ccccc12 | inactive | –
CCCN1C(=O)/C(=C/c2ccc(C)s2)NC1=S | inactive | –
CS(=O)(=O)n1nc(-c2cccnc2)nc1NCc1ccccc1 | inconclusive: 16.4 µM [cytotoxic, partial curve, poor fit] | –
CCOc1ccc(C2N(c3ccc(F)cc3)C(=O)C3CCCN32)cc1 (stereo not drawn) | inconclusive: 25.9 µM [rising, single point] | –
O=C(Nc1nc2ccccc2[nH]1)c1cccc(S(=O)(=O)N2CCOCC2)c1 | inconclusive: 3.66 µM [cytotoxic, full curve, poor fit] | –
COc1ccc(CNCCC(c2ccc3c(c2)OCO3)c2ccccc2OC)cc1 (stereo not drawn) | inconclusive: 29.1 µM [cytotoxic, single point] | –
COc1cc(OC)c(C(=O)Nc2ccc3ccccc3c2)cc1OC | inactive | –
Cc1c(C(=O)O)oc2ccc(S(=O)(=O)N3CCCC3)cc12 | inconclusive: 18.4 µM [rising, single point] | –
c1cncc(-c2cn(C[C@H]3CC[C@H](Cn4cc(-c5cccnc5)nn4)O3)nn2)c1 | inactive | –
CN(CC(=O)Nc1ccc(Cl)cc1)c1ccc(S(=O)(=O)N2CCCCC2)cc1[N+](=O)[O-] | active: 16.4 µM | –
COc1ccccc1OC(=O)c1ccc(S(=O)(=O)N(C)C)cc1 | inconclusive: 29.1 µM [rising, single point] | –

Two entries from above in a different format.
Cc1cc(Br)cn2c(Cc3ccccc3)c(-c3ccc(F)cc3)nc12
  Potency: inactive
COc1ccc(CNCCC(c2ccc3c(c2)OCO3)c2ccccc2OC)cc1 (stereo not drawn)
  Potency: inconclusive: 29.1 µM [cytotoxic, single point]

Next part.

SMILES | Potency | activity change, negative = cytotoxicity
Cc1[nH]n(-c2ccc(Cl)cc2)c(=O)c1/C=N/n1c(C)nc2ccccc2c1=O | inconclusive: 20.6 µM [cytotoxic, partial curve, poor fit] | –
CCn1c(/C=C/c2cc[n+](C)cc2)nc2ccccc21 | inconclusive: 16.4 µM [rising, single point] | –
Fc1cccc(-c2nnn3c2nc(Cl)c2ccccc23)c1 | inactive | –
Cc1ccc(S(=O)(=O)N2CC3(O)CN(C(=O)OC(C)C)N(C(=O)OC(C)C)CC3(OC(=O)NCC3CCCCC3)C2)cc1 (stereo not drawn) | inactive | –
Cc1ccc(C)c(Nc2nc(N)c3ccccc3n2)c1 | inactive | –
CCCCOC(=O)C1=C(C)Nc2ncnn2C1c1ccc(OCC)c(OC)c1 (stereo not drawn) | active: 4.61 µM | –
CCCCN1CC(COCc2ccccc2)Oc2cccc(Oc3cc(C)c(C)c(C)c3)c2S1(=O)=O (stereo not drawn) | inactive | –
Cc1nn(Cc2ccccc2)c2c1C(c1ccc(Cl)cc1)C(C#N)=C(N)O2 (stereo not drawn) | inconclusive: 29.1 µM [cytotoxic, single point] | –
CC(=O)c1cccc(NC(=O)CC(c2ccc(C)cc2)N2Cc3ccccc3C2=O)c1 (stereo not drawn) | inconclusive: 20.6 µM [cytotoxic, single point] | –
CCOC(=O)C1(Cc2ccccc2)CCN(Cc2csc(C(C)=O)c2)CC1 | inconclusive: 20.6 µM [cytotoxic, single point] | –
COc1cccc(/C=C/C(=O)c2ccc(C)c([N+](=O)[O-])c2)c1 | inactive | –
Cc1ccc(-n2c(=O)[nH]c3cc(C(=O)NCc4ccccc4)ccc3c2=O)cc1 | inconclusive: 8.2 µM [rising, partial curve, poor fit] | –
O=C1NC[C@H](CCCCN2C[C@H](Cc3ccccc3)N(CCC3CCCCC3)C(=O)C2=O)N(CCC2CCCCC2)C1=O | inactive | –
O=C(Cn1nc(C(=O)O)c2ccccc2c1=O)Nc1nc(-c2ccccc2)cs1 | inactive | –
Oc1ccc(C2=NNC(=NCc3ccc4c(c3)OCO4)SC2)c(O)c1 | active: 7.31 µM | –
CN1CCOCCOc2ccccc2OCCOCC1 | inactive | –
CCCNC(=O)c1cc(C2CCCN(C(=O)C3CC3)C2)on1 (stereo not drawn) | inactive | –
CCC(C)NC(=O)CCc1nc2ccccc2n1-c1ccccc1 (stereo not drawn) | inconclusive: 16.4 µM [cytotoxic, single point] | –
Cn1c(=O)c2c(O)c(C=NCc3ccccc3)c(=O)n(C)c2n(C)c1=O | inconclusive: 23.1 µM [rising, single point] | –
CCCCn1cnc2c(SCc3ccc(Cl)cc3)nc(N)nc21 | inconclusive: 5.17 µM [cytotoxic, full curve, poor fit] | –
CCN(C(=O)Nc1cn(CC(C)C)c(=O)c2ccccc12)c1cc(C)ccc1C | inactive | –
OC(Cc1cccc(Br)c1)c1ncc(-c2cccc(C(F)(F)F)c2)[nH]1 (stereo not drawn) | inconclusive: 29.1 µM [cytotoxic, single point] | –
O=C(CCCCn1c(=O)[nH]c2ccccc2c1=O)NCCC1=CCCCC1 | active: 16.4 µM | –

Reformatted as labelled records: entries from further up
CCCNC(=O)c1cc(C2CCCN(C(=O)C3CC3)C2)on1 (stereo not drawn)
  Potency: inactive
CCC(C)NC(=O)CCc1nc2ccccc2n1-c1ccccc1 (stereo not drawn)
  Potency: inconclusive: 16.4 µM [cytotoxic, single point]
